Assay results: PMC10618106

Biological target: FLAG-tagged CK2α (human), P68400
Assay: affinity purification with mass spectrometry; FLAG-CK2α expressed in HEK293; nuclear fractions of cells starved and restimulated with serum to early G1 (6 h) or late G1 (15-16 h); pre-cleared with normal IgG-agarose, anti-FLAG M2 agarose, eluted with FLAG peptide, trypsin, nano-LC MS/MS (Mascot)
Settings: remark: other sources report otherwise

binding: binds
B1: Nucleolar transcription factor 1, P17480 1-764 (protein)
chain: MNGEADCPTDLEMAAPKGQDRWSQEDMLTLLECMKNNLPSNDSSKFKTTESHMDWEKVAFKDFSGDMCKLKWVEISNEVRKFRTLTELILDAQEHVKNPYKGKKLKKHPDFPKKPLTPYFRFFMEKRAKYAKLHPEMSNLDLTKILSKKYKELPEKKKMKYIQDFQREKQEFERNLARFREDHPDLIQNAKKSDIPEKPKTPQQLWYTHEKKVYLKVRPDATTKEVKDSLGKQWSQLSDKKRLKWIHKALEQRKEYEEIMRDYIQKHPELNISEEGITKSTLTKAERQLKDKFDGRPTKPPPNSYSLYCAELMANMKDVPSTERMVLCSQQWKLLSQKEKDAYHKKCDQKKKDYEVELLRFLESLPEEEQQRVLGEEKMLNINKKQATSPASKKPAQEGGKGGSEKPKRPVSAMFIFSEEKRRQLQEERPELSESELTRLLARMWNDLSEKKKAKYKAREAALKAQSERKPGGEREERGKLPESPKRAEEIWQQSVIGDYLARFKNDRVKALKAMEMTWNNMEKKEKLMWIKKAAEDQKRYERELSEMRAPPAATNSSKKMKFQGEPKKPPMNGYQKFSQELLSNGELNHLPLKERMVEIGSRWQRISQSQKEHYKKLAEEQQKQYKVHLDLWVKSLSPQDRAAYKEYISNKRKSMTKLRGPNPKSSRTTLQSKSESEEDDEEDEDDEDEDEEEEDDENGDSSEDGGDSSESSSEDESEDGDENEEDDEDEDDDEDDDEDEDNESEGSSSSSSSSGDSSDSDSN

Results are given in words; binding and its absence hold for the method and conditions named. In cells and extracts the contact can be indirect. Here binding means that the protein was enriched with, or labelled near, the bait; the list need not be complete.
